Assay results taken from the supplement of paper PMC8728848.
The list shows a part of the results.

Assays:
Test in all cases: glycan array binding signal (z-score within array); higher = stronger binding
Settings in all cases: glycan notation: IUPAC condensed, linker removed
[1] = target: Man(a1-2)Man(a1-2)Man(a1-3)Man
In short: (§1)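 The Consortium for Functional Glycomics database supplied 3228 glycan arrays, of which those lacking an available protein sequence were dropped. The binding signal, a within-array Z-score, was averaged across arrays of the same protein sequence and across linkers. Negative scores can be read as non-binding.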

[2] = target: Man(a1-2)Man(a1-2)Man(a1-6)[Man(a1-3)]Man
In short: as §1

Man(a1-2)Man(a1-3)Man = target: Man(a1-2)Man(a1-3)Man
In short: as §1

[3] = target: Man(a1-2)Man(a1-3)[Man(a1-2)Man(a1-6)]Man
In short: as §1

[4] = target: Man(a1-2)Man(a1-3)[Man(a1-2)Man(a1-6)]Man(a1-6)[Man(a1-2)Man(a1-2)Man(a1-3)]Man
In short: as §1

[5] = target: Man(a1-2)Man(a1-3)[Man(a1-2)Man(a1-6)]Man(a1-6)[Man(a1-2)Man(a1-2)Man(a1-3)]Man(b1-4)GlcNAc(b1-4)GlcNAc
In short: as §1

[6] = target: Man(a1-2)Man(a1-3)[Man(a1-6)]Man(a1-6)[Man(a1-2)Man(a1-3)]Man(b1-4)GlcNAc(b1-4)GlcNAc
In short: as §1

[7] = target: Man(a1-2)Man(a1-6)[Man(a1-3)]Man(a1-6)[Man(a1-2)Man(a1-2)Man(a1-3)]Man
In short: as §1

[8] = target: Man(a1-2)Man(a1-6)[Man(a1-3)]Man(a1-6)[Man(a1-2)Man(a1-2)Man(a1-3)]Man(b1-4)GlcNAc(b1-4)GlcNAc
In short: as §1

Man(a1-3)[Man(a1-6)]Man = target: Man(a1-3)[Man(a1-6)]Man
In short: as §1

[9] = target: Man(a1-3)[Man(a1-6)]Man(a1-6)[Man(a1-2)Man(a1-3)]Man(b1-4)GlcNAc(b1-4)GlcNAc
In short: as §1

[10] = target: Man(a1-3)[Man(a1-6)]Man(a1-6)[Man(a1-3)]Man
In short: as §1

[11] = target: Man(a1-3)[Man(a1-6)]Man(a1-6)[Man(a1-3)]Man(b1-4)GlcNAc(b1-4)GlcNAc
In short: as §1

[12] = target: Man(a1-3)[Man(a1-6)]Man(b1-4)GlcNAc(b1-4)GlcNAc
In short: as §1

Man(a1-6)Man = target: Man(a1-6)Man
In short: as §1

Man(b1-4)GlcNAc = target: Man(b1-4)GlcNAc
In short: as §1

Neu5Ac(a2-3)Gal = target: Neu5Ac(a2-3)Gal
In short: as §1

[13] = target: Neu5Ac(a2-3)Gal(b1-3)GalNAc
In short: as §1

[14] = target: Neu5Ac(a2-3)Gal(b1-3)GalNAc(b1-3)Gal(a1-4)Gal(b1-4)Glc
In short: as §1

[15] = target: Neu5Ac(a2-3)Gal(b1-3)GalNAc(b1-3)Gal(b1-4)GlcNAc
In short: as §1

[16] = target: Neu5Ac(a2-3)Gal(b1-3)GalNAc(b1-4)[Neu5Ac(a2-3)]Gal(b1-4)Glc
In short: as §1

[17] = target: Neu5Ac(a2-3)Gal(b1-3)GalNAc6S
In short: as §1

[18] = target: Neu5Ac(a2-3)Gal(b1-3)GlcNAc
In short: as §1

[19] = target: Neu5Ac(a2-3)Gal(b1-3)GlcNAc(b1-3)Gal(b1-3)GlcNAc
In short: as §1

[20] = target: Neu5Ac(a2-3)Gal(b1-3)GlcNAc6S
In short: as §1

[21] = target: Neu5Ac(a2-3)Gal(b1-3)[Fuc(a1-4)]GlcNAc
In short: as §1

[22] = target: Neu5Ac(a2-3)Gal(b1-3)[Fuc(a1-4)]GlcNAc(b1-3)Gal(b1-3)[Fuc(a1-4)]GlcNAc
In short: as §1

[23] = target: Neu5Ac(a2-3)Gal(b1-3)[Fuc(a1-4)]GlcNAc(b1-3)Gal(b1-4)[Fuc(a1-3)]GlcNAc
In short: as §1

[24] = target: Neu5Ac(a2-3)Gal(b1-3)[Neu5Ac(a2-3)Gal(b1-4)]GlcNAc
In short: as §1

[25] = target: Neu5Ac(a2-3)Gal(b1-3)[Neu5Ac(a2-6)]GalNAc
In short: as §1

Neu5Ac(a2-3)Gal(b1-4)Glc = target: Neu5Ac(a2-3)Gal(b1-4)Glc
In short: as §1

[26] = target: Neu5Ac(a2-3)Gal(b1-4)GlcNAc
In short: as §1

[27] = target: Neu5Ac(a2-3)Gal(b1-4)GlcNAc(b1-2)Man(a1-3)[GlcNAc(b1-2)Man(b1-4)GlcNAc(b1-2)Man(a1-6)]Man(b1-4)GlcNAc(b1-4)GlcNAc
In short: as §1

[28] = target: Neu5Ac(a2-3)Gal(b1-4)GlcNAc(b1-2)Man(a1-3)[Neu5Ac(a2-6)Gal(b1-4)GlcNAc(b1-2)Man(a1-6)]Man(b1-4)GlcNAc(b1-4)GlcNAc
In short: as §1

[29] = target: Neu5Ac(a2-3)Gal(b1-4)GlcNAc(b1-3)Gal(b1-3)GlcNAc
In short: as §1

[30] = target: Neu5Ac(a2-3)Gal(b1-4)GlcNAc(b1-3)Gal(b1-4)GlcNAc
In short: as §1

[31] = target: Neu5Ac(a2-3)Gal(b1-4)GlcNAc(b1-3)Gal(b1-4)GlcNAc(b1-3)Gal(b1-4)GlcNAc
In short: as §1

B1: 4F2hc (Homo sapiens), P08195 (protein)
chain: WWHTGALYRIGDLQAFQGHGAGNLAGLKGRLDYLSSLKVKGLVLGPIHKNQKDDVAQTDLLQIDPNFGSKEDFDSLLQSAKKKSIRVILDLTPNYRGENSWFSTQVDTVATKVKDALEFWLQAGVDGFQVRDIENLKDASSFLAEWQNITKGFSEDRLLIAGTNSSDLQQILSLLESNKDLLLTSSYLSDSGSTGEHTKSLVTQYLNATGNRWCSWSLSQARLLTSFLPAQLLRLYQLMLFTLPGTPVFSYGDEIGLDAAALPGQPMEAPVMLWDESSFPDIPGAVSANMTVKGQSEDPGSLLSLFRRLSDQRSKERSLLHGDFHAFSAGPGLFSYIRHWDQNERFLVVLNFGDVGLSAGLQASDLPASASLPAKADLLLSTQPGREEGSPLELERLKLEPHEGLLLRFPYAA
[1]
  glycan array binding signal (z-score): -0.86
[2]
  glycan array binding signal (z-score): 0.029
Man(a1-2)Man(a1-3)Man
  glycan array binding signal (z-score): -0.162
[3]
  glycan array binding signal (z-score): -0.794
[4]
  glycan array binding signal (z-score): 0.581
[5]
  glycan array binding signal (z-score): -0.185
[6]
  glycan array binding signal (z-score): -1.16
[7]
  glycan array binding signal (z-score): -0.537
[8]
  glycan array binding signal (z-score): -0.939
Man(a1-3)[Man(a1-6)]Man
  glycan array binding signal (z-score): -0.33
[9]
  glycan array binding signal (z-score): -0.16
[10]
  glycan array binding signal (z-score): -0.542
[11]
  glycan array binding signal (z-score): 0.061
[12]
  glycan array binding signal (z-score): 0.721
Man(a1-6)Man
  glycan array binding signal (z-score): -0.058
Man(b1-4)GlcNAc
  glycan array binding signal (z-score): -0.4
Neu5Ac(a2-3)Gal
  glycan array binding signal (z-score): -0.507
[13]
  glycan array binding signal (z-score): -1.1
[14]
  glycan array binding signal (z-score): -0.604
[15]
  glycan array binding signal (z-score): -0.583
[16]
  glycan array binding signal (z-score): -0.592
[17]
  glycan array binding signal (z-score): -0.717
[18]
  glycan array binding signal (z-score): -0.715
[19]
  glycan array binding signal (z-score): -0.667
[20]
  glycan array binding signal (z-score): 0.859
[21]
  glycan array binding signal (z-score): 1.08
[22]
  glycan array binding signal (z-score): 0.719
[23]
  glycan array binding signal (z-score): 1.55
[24]
  glycan array binding signal (z-score): -0.756
[25]
  glycan array binding signal (z-score): 0.401
Neu5Ac(a2-3)Gal(b1-4)Glc
  glycan array binding signal (z-score): 1.76
[26]
  glycan array binding signal (z-score): -0.087
[27]
  glycan array binding signal (z-score): -0.837
[28]
  glycan array binding signal (z-score): -0.878
[29]
  glycan array binding signal (z-score): -0.714
[30]
  glycan array binding signal (z-score): -0.564
[31]
  glycan array binding signal (z-score): 2.08
